{"source": "patent US20060057104A1", "about": "“Methods for stimulating tlr irf3 pathways for inducing anti-microbial, anti-inflammatory and anticancer responses” (THE Regents of the University of California Office of the …, priority 2002, published 2006)", "system": "BMMs", "assay": "Q-PCR gene expression in BMMs stimulated with TLR agonists (Example 1)", "type": "cell-based, murine", "details": "by 2 h; 1 ng/mL LPS/lipid A or 1 μg/mL poly I:C", "method": "(C) BMM's were stimulated with the following TLR-agonists: lipid A (1 ng/mL), peptidoglycan (PGN) (10 μg/mL), poly I:C (I μg/ml), or CpG (100 nM) for 30 min, and cell extracts were used for an in vitro kinase assay using GST-c-jun as a substrate (upper left), identical simulations were repeated for I hr, and RNA was harvested, and used for Q-PCR analysis.\n(A) BMMs were stimulated for the indicated time points with the following TLR-agonists: lipid A (1 ng/ml), PGN (20 μg/ml), poly I:C (1 μg/ml), or CpG (100 nM), and RNA was harvested and used for Q-PCR analysis. […]\nRNA was isolated for both Northern blotting and quantitative real-time PCR (Q-PCR) using a standard guanidium isothiocyanate method. […] For Q-PCR, RNA was quantitated and 2 μg of RNA was used to make cDNA templates using Superscript II (Invitrogen) according the manufactuors instruction with either oligo-dT or random hexamer as primers. […]\nWe then investigated the TLR-specificity of gene expression in BMMs using specific agonists for TLR4 (lipid A), TLR2 (peptioglycan), TLR3 (poly I:C) and TLR9 (CpG). In order to account for differences in binding affinity and receptor expression, the concentrations of TLR ligands used for stimulation were titrated to produce roughly equivalent activation of the JNK pathway as determined by GST-c-Jun in vitro kinase assay (FIG. 2C, upper left).", "note": "Some entries share one result that the patent states for a list of compounds."}
{"substance": "poly I:C", "values": [{"measurement": "increase in gene expression", "result": "> 50", "unit": "fold"}]}
